Results: patent US20110229560A1
No constants are given. Whether binding was seen depends on the method and setting. Binding seen in cells or lysates may run through a third protein. Some entries that bind do so weakly or less than the wild type. Tags and fused reporters may be left off the sequences shown.

By UniProt entry, the sequences of proteins in these tests, tags left out. Where a name states a change or a piece, a line headed by the entry shows the natural chain unless it says otherwise.
UniProt Q86WI3: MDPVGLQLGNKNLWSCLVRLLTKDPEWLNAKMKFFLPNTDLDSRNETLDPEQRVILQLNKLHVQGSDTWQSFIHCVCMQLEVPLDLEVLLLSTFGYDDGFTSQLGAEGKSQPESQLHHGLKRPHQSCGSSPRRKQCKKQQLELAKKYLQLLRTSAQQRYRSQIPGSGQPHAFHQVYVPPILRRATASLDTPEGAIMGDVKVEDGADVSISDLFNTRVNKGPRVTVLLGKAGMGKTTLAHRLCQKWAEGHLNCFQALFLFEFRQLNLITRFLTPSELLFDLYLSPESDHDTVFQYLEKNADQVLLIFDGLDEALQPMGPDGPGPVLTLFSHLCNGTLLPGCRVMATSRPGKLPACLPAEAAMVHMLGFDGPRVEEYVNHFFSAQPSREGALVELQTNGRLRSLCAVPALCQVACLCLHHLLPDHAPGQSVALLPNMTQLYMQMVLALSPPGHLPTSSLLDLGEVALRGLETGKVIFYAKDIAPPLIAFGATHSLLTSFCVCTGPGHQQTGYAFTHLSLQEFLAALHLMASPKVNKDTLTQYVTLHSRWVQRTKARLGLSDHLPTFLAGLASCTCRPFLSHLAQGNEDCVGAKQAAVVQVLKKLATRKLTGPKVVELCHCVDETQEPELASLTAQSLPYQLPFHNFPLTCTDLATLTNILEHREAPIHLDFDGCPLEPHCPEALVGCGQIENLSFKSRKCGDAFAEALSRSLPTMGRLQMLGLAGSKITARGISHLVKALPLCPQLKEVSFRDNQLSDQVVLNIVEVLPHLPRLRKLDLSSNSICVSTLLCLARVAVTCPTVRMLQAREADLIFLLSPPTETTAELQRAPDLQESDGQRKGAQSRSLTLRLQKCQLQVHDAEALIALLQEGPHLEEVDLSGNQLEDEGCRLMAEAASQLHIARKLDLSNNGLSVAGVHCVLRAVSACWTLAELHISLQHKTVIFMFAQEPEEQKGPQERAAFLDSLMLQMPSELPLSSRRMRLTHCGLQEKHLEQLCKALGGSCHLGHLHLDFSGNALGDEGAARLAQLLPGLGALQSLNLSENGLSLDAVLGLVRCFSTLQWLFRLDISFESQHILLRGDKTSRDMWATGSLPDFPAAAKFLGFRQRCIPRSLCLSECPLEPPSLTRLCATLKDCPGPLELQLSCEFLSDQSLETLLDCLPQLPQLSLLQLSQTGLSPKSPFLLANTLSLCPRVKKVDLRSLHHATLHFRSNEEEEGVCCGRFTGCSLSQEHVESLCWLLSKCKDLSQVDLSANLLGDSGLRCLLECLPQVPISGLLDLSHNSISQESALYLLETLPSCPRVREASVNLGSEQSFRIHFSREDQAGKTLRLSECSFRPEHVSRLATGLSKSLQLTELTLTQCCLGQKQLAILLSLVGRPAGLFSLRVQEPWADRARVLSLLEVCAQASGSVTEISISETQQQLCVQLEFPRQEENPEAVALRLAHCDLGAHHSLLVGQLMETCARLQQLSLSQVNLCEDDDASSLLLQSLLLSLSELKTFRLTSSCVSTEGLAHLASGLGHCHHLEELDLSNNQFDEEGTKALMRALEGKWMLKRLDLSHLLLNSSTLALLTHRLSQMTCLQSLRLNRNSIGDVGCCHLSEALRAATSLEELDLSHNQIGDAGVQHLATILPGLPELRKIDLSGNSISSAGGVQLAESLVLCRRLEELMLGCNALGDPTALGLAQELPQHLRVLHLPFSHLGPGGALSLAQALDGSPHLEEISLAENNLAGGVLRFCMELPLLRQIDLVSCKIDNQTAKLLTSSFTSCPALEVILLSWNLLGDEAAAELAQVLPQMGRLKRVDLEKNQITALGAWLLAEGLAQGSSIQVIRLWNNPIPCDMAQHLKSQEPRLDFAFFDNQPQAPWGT

Experiments:
Flag-tagged IKKα = molecular target: T1, Flag-tagged IKKα (UniProt O15111); assay: co-IP (anti-HA beads) and Western blot (anti-Flag), transfected 293T cells, FIG. 7A
T1 sequence (looked up): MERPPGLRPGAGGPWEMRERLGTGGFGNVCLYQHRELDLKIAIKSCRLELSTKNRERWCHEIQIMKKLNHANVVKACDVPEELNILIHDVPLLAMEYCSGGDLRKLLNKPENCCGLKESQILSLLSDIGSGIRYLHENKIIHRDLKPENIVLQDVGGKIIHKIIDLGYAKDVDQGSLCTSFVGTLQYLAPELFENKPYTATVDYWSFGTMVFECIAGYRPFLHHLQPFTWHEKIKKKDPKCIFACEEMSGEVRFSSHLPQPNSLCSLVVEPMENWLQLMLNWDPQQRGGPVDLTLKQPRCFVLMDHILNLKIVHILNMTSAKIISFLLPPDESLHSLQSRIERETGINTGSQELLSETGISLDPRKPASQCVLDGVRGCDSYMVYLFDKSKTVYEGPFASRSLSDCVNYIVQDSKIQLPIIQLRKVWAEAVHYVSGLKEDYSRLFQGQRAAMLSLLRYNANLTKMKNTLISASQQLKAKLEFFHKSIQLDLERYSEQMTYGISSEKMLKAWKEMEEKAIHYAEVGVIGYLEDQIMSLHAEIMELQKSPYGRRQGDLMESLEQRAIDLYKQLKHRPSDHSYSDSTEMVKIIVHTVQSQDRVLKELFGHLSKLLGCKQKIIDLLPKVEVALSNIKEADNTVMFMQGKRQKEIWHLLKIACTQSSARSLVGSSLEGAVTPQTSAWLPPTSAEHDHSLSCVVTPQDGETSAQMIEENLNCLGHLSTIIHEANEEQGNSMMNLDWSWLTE

[1] = molecular target: T2, Flag-tagged IKKβ (full length) (UniProt O14920); assay: as above
T2 sequence (looked up): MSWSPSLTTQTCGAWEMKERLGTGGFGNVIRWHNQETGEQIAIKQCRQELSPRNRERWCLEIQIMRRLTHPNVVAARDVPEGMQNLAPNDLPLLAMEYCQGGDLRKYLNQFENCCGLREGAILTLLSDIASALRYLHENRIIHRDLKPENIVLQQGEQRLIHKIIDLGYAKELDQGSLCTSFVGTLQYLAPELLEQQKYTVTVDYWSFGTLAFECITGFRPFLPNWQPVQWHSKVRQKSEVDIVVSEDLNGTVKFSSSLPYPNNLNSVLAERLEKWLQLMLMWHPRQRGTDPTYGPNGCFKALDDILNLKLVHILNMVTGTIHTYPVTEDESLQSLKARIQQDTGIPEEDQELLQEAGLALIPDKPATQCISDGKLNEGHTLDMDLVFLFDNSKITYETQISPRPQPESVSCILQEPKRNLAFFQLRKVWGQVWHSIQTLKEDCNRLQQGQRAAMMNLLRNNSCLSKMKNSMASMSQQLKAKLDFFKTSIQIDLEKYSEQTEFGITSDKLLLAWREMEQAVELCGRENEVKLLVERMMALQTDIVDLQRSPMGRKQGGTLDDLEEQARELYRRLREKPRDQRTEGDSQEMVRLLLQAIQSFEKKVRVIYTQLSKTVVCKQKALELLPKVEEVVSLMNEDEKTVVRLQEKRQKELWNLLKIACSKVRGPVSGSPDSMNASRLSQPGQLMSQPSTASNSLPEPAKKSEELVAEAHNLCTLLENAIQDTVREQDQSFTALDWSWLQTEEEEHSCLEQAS

[2] = molecular target: T3, IKKβ-KD (amino-terminal kinase domain construct of IKKβ, Flag-tagged) (UniProt O14920); assay: co-IP (anti-Flag beads) and Western blot (anti-HA), transfected 293T cells
T3 sequence (looked up): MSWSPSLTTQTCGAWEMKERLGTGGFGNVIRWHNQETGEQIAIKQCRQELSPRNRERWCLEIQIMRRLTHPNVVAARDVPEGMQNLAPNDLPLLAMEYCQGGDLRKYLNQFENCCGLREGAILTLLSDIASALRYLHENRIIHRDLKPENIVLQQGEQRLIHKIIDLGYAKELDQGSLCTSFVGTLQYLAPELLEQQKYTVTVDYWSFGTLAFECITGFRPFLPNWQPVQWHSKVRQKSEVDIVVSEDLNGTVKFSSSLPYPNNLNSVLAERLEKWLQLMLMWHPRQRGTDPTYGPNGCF

binding (Flag-tagged IKKα): binds | binding [1]: binds | binding [2]: binds
Substance: HA-tagged NLRC5 (human NLRC5, full length) (from UniProt Q86WI3 1-1866)
